This note sets out measurements from paper PMC12329599, “Acetylation of microtubule-binding PinX1 orchestrates ribosome biogenesis to nutrient starvation via the RNA polymerase I preinitiation complex” (The Journal of Biological Chemistry, 2025).

By UniProt entry, the sequences of proteins in these tests, tags left out.
UniProt P06748: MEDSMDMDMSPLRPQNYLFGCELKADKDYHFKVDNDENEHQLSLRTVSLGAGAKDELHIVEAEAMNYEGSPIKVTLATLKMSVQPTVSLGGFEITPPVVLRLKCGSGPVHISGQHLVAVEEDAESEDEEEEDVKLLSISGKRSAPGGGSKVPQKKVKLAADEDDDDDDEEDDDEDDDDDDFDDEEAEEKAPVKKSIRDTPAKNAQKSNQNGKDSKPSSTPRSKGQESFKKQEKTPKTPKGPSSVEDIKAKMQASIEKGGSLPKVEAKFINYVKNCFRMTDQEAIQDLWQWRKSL

Results are given in words; binding and its absence hold for the method and conditions named. In cells and extracts the contact can be indirect. These calls come from enrichment with a bait or labelling near it, and not all partners need be listed. Tags and fused reporters may be left off the sequences shown.

This experiment deals with T1, PinX1-3×Flag wild type, expressed in HCT116 cells (human) (UniProt Q96BK5).
T1 sequence: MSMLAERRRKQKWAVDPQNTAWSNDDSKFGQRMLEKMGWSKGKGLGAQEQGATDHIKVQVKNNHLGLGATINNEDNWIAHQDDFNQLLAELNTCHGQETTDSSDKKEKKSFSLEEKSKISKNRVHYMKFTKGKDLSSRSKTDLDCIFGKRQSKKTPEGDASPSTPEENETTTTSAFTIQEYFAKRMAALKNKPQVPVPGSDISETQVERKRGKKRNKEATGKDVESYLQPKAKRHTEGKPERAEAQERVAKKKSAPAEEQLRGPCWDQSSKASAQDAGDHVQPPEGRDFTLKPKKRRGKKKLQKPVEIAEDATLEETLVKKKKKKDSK
The experiment in a line: affinity purification with mass spectrometry; 3×Flag-PinX1 WT or 6KQ transfected into HCT116 cells, lysis in BC100, anti-Flag M2 beads, SDS-PAGE, LC-MS/MS.

Take “NPM, endogenous in HCT116 cells (from UniProt P06748 1-294)”: the binding entry is “binds”.
